Where “and” joins values, the source holds several entries; their conditions need not be identical. Identical values can stand only once. Some of the results follow. Single values of this set are uncertain.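 The cells are a human neuroglioma line carrying a green fluorescent autophagy reporter.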
tested on: H4 GFP-LC3; experiment: ACBP immunofluorescence intensity (scaled to control) (AU (scaled)); higher = more intracellular ACBP/DBI; settings: 5 µM; 24 h

Row | Compound | ACBP immunofluorescence intensity
1 | C=CCN1C[C@H](C)N([C@H](c2ccc(C(=O)N(CC)CC)cc2)c2cccc(OC)c2)C[C@H]1C | 0.705
2 | Fc1ccc(C(OCCN2CCN(C/C=C/c3ccccc3)CC2)c2ccc(F)cc2)cc1 | 0.495
3 | Oc1ccc2c3c1O[C@H]1[C@@H](O)CC[C@@]4(O)[C@@H](C2)N(CC2CCC2)CC[C@]314 | 0.528
4 | NC(=O)[C@@H]1CCCN1C(=O)[C@H](Cc1ccccc1)NC(=O)[C@@H]1CCCN1C(=O)[C@@H](N)Cc1ccc(O)cc1 | 0.909
5 | CC[C@@H](CO)NC(=O)[C@@H]1C=C2c3cccc4c3c(cn4C)C[C@H]2N(C)C1 | 0.859
6 | O=c1[nH]c2ccccc2n1CCCN1CCC(n2c(=O)[nH]c3cc(Cl)ccc32)CC1 | 0.507
7 | NCCc1c[nH]c2ccc(O)cc12 | 0.717 and 0.742
8 | O=C(CCCN1CCC2(CC1)C(=O)N(Cc1cccc(F)c1)CN2c1ccccc1)c1ccc(F)cc1 | 0.785
9 | O=C(O)Cc1cccnc1C(=O)O | 0.443
10 | S=C(NC1CCCCC1)N1CCC(c2cnc[nH]2)CC1 | 0.911
11 | C=CC[N+]1(C)CC[C@]23c4c5ccc(O)c4O[C@H]2C(=O)CC[C@@]3(O)[C@H]1C5 (stereo not given in full) | 0.888
12 | c1ccc(CCCCN2CCC(c3ccccc3)CC2)cc1 | 0.588
13 | NCCCC[C@H](NC(=O)[C@H](Cc1ccccc1)NC(=O)[C@@H](CCCN=C(N)N)NC(=O)[C@@H](N)Cc1ccc(O)cc1)C(N)=O | 0.765
14 | Clc1ccc(C2CC3CCC2N3)cn1 (racemic) | 0.6
15 | C[N+](C)(C)CCCCCCCCCC[N+](C)(C)C | 0.46
16 | CC(NC(=O)C(N)Cc1ccc(O)cc1)C(=O)NC(Cc1ccccc1)C(=O)NC(Cc1ccccc1)C(N)=O (stereo not given) | 0.948
17 | C[C@H](Cc1ccc(OCC(=O)O)cc1)NC[C@H](O)c1cccc(Cl)c1 | 0.393
18 | COc1ccc(C(=O)N2CCCC2=O)cc1 | 0.492

Row | Compound | ACBP immunofluorescence intensity
19 | Oc1ccc2c3c1O[C@H]1c4oc5ccccc5c4C[C@@]4(O)[C@@H](C2)N(CC2CC2)CC[C@]314 | 0.602
20 | CO[C@]12C[C@@H](COC(=O)c3cncc(Br)c3)CN(C)[C@@H]1Cc1cn(C)c3cccc2c13 | 0.592
21 | CC(N)Cc1cnc[nH]1 (stereo not given) | 0.785 and 0.872
22 | NC1CCc2cc(O)c(O)cc2C1 (stereo not given) | 0.744
23 | C=CCN1CC[C@@]2(C)c3cc(O)ccc3C[C@@H]1C2C (single isomer, unassigned; (+)) | 0.828
24 | C[C@@H]1O[C@H](C[N+](C)(C)C)C[C@H]1O | 0.565
25 | O=C1CC[C@@]2(O)[C@H]3Cc4ccc(O)c5c4[C@@]2(CCN3CC2CC2)[C@H]1O5 | 0.485
26 | c1ccc2c(N3CCNCC3)cccc2c1 | 0.613
27 | c1ccc(C2CNCc3ccccc32)cc1 (stereo not given) | 0.432
28 | CN1CCN(c2ccc3ccccc3n2)CC1 | 0.82
29 | CC(C)NCC(O)c1ccc(N)c(C#N)c1 (stereo not given) | 0.375
30 | CC[C@@H](CO)NC(=O)[C@@H]1C=C2c3cccc4[nH]cc(c34)C[C@H]2N(C)C1 | 0.878
31 | CC(C)[C@@]1(NC(=O)[C@@H]2C[C@@H]3c4cccc5[nH]cc(c45)C[C@H]3N(C)C2)O[C@@]2(O)[C@@H]3CCCN3C(=O)[C@H](Cc3ccccc3)N2C1=O | 0.694
32 | CCCN1C[C@H](C)N([C@H](c2ccc(C(=O)N(CC)CC)cc2)c2cccc(OC)c2)C[C@H]1C | 0.733
33 | CC(N)Cc1c[nH]c2ccc(OCc3cccs3)cc12 (stereo not given) | 0.524
34 | N=C(N)NCCCCCCCCCCNC(=N)N | 0.471
35 | CO[C@H]1CC=C2CCN3CCC4=C(CC(=O)OC4)[C@]23C1 | 0.459
